Values quoted from earlier work, collected in publication PMC7175181 (Biomolecules, 2020).

System: ACE
Details: ref [52],[53]; cited from earlier work

For `NCCCC[C@H](N[C@@H](CCc1ccccc1)C(=O)O)C(=O)N1CCC[C@H]1C(=O)O` [lisinopril], the “ACE residues interacting with inhibitor” value is given as “Glu162, His353, Ala354, Glu384, His387, Glu411, Lys511, His513, Tyr520, and Tyr523”.
